From publication PMC9592637, “Functional characterization and transcriptional repression by Lacticaseibacillus paracasei DinJ-YafQ” (Applied Microbiology and Biotechnology, 2022)
For at least one entry, the source does not settle the construct or the ends of the probe.

Key:
[1] = system: RNA polymerase sigma-70 holoenzyme (Escherichia coli); experiment: EMSA; conditions: 200 nM RNAP, 5 mM Mg2+, 37 C; EMSA: 2 nM DNA, 128 ng salmon sperm DNA in 10 uL, 50 mM Tris-HCl pH 7.5, 50 mM KCl, 5% glycerol, room temperature 10 min, 6% native PAGE in TBE; commercial protein; label: DY682 on both primers; probe letters rebuilt from the primers and the genome
[2] = system: DinJ (Lacticaseibacillus paracasei 4366); experiment: EMSA; conditions: KDapp, Hill n 3.7 ± 0.2, salmon sperm DNA competitor; EMSA: 2 nM DNA, 128 ng salmon sperm DNA in 10 uL, 50 mM Tris-HCl pH 7.5, 50 mM KCl, 5% glycerol, room temperature 10 min, 6% native PAGE in TBE; recombinant protein; residues 1-89; protein details: N-terminal His6 (pET28b); label: DY682 on both primers; probe letters rebuilt from the primers and the genome
[3] = system: DinJ (Lacticaseibacillus paracasei 4366); experiment: competition with a labelled probe; conditions: versus 200 nM RNAP, inhibits RNAP binding, partially dissociates at 37 C, 5 mM Mg2+; EMSA: 2 nM DNA, 128 ng salmon sperm DNA in 10 uL, 50 mM Tris-HCl pH 7.5, 50 mM KCl, 5% glycerol, room temperature 10 min, 6% native PAGE in TBE; recombinant protein; residues 1-89; protein details: N-terminal His6 (pET28b); label: DY682 on both primers; probe letters rebuilt from the primers and the genome

GATCAACACGAATATTCAAGCGAGTTTCTTTCTTTGTGGCTGCCATTGCTAACCACTCCTTCCTATCTAACAACCTAATTATATCACGAATTATCCCAATGTAAACACAGCGGGATAACATCATGTGAGATGAATTCAACCGGATTTCTGGCTTTTTCTTCGCACAAATGGAAGCGTAACTGCCATCAGACGTT (double strand) [194-bp dinJ-yafQ promoter fragment]
binding result [1]: binds
Kd [2]: 61 nM
binding result [3]: binds
